The list shows a part of the results. The main result of the screen is listed elsewhere. These columns were measured beside it and carry no call. Compounds called inactive in the main read-out are mostly missing here. Potencies come from curve fits of mixed quality, noted in brackets.

This assay is described as follows: Cell signaling CRE-BLA (Fsk stim). As to conditions: CHO CRE-bla reporter (cAMP response element driving beta-lactamase), forskolin EC10, beta-lactamase ratio; measured here: 460 nm blue channel. The source says:
NIH Molecular Libraries Screening Centers Network [MLSCN]
NIH Chemical Genomics Center [NCGC]
Assay Provider: Marshall W. Nirenberg, U.S. National heart lung & blood institute
Memories persist for different lengths of time, from seconds or minutes to a lifetime. There are two kinds of memory: short-term memory (STM) and long-term memory (LTM). STM lasts for minutes to hours, which maybe mediated by modifications of molecules involved in synaptic functions. LTM lasts for days or longer, and may be due to the formation of new synapses or restructuring of existing synapses. LTM, but not STM, requires gene transcription and synthesis of proteins. CREB (cyclic-AMP Responsive Element Binding Protein) is one of the candidates plays an important role for enhancement of some types of LTM. CREB, a family of transcription factors, regulates the transcription of genes containing cAMP Responsive Elements (CRE). CRE is a nucleotide sequence often found in the promoter regions of genes that are binding sites for CREB.
Using a beta-lactamase reporter-gene under control of cAMP responsive element, a cell-based assay [CellSensor(TM) CRE-bla CHO developed by Invitrogen Corp.] was used to measure forskolin-induced signaling. Library compounds were measured for their ability to modulate positively or negatively the action of EC10 NKH 477, a water soluble forskolin, on reporter gene activity. Compounds were screened in a titration series in 1536-well format. Positive and negative modulators were identified based on the AC50 values derived from the screening data.
NCGC Assay Protocol Summary
2000 cells/5uL in Opti-MEM medium containing 0.5% dialyzed FBS, 0.1 mM NEAA, 1 mM sodium pyruvate and 10 mM HEPES was dispensed into 1536-well plates and cells were cultured at 37 degrees Celsius overnight. […] And then the plates were incubated at 37 degrees Celsius for 3 hours. 1 uL of CCF4-dye mixture was added to each well. After incubated at room temperature for 2 hours the plates were measured on an EnVision plate reader at Excitation 405nm, Emission1=460nm and Emission 2=530nm. The %Activity was determined from the ratio of 460nm/530nm.
Keywords: NIH Roadmap, MLSCN, MLSMR, qHTS, NCGC, CRE, beta-lactamase reporter-gene assay.
A word on the AC50: it is the concentration at which the activity in the assay is half-maximal. For the compound `O=C(O)CSCC(=O)c1ccccc1`, the AC50 is 0.501 µM [rising, partial curve].

As for `CC1Cc2nc(SCC(=O)Nc3ccc4c(c3)OCO4)n(CCc3ccccc3)c(=O)c2S1` (centres undefined), the concentration at half-maximal activity (AC50) is 7.94 µM [rising, partial curve].

As for `COc1ccc(Nc2ccccc2)c(C)c1`, the concentration at half-maximal activity (AC50) was 12.6 µM [rising, single point].

As for `COc1ccc(-n2c(=O)c(-c3cn(C)c4ccccc34)nc3cnc(N4CCNCC4)nc32)cc1`, the AC50 was 7.94 µM [rising, partial curve].

On to `CCN(CC)C(=O)CSc1nc(C)cc(-c2cccs2)c1C#N`, for which the half-maximal activity concentration (AC50) is 12.6 µM [rising, partial curve].

`Cc1cc2cc(CN(Cc3ccc4c(c3)OCO4)C(=O)c3cnccn3)c3nnnn3c2cc1C`: the AC50 is 25.1 µM [falling, single point].

Consider `COC(=O)C1=C(C)N=c2s/c(=C3\C(=O)Nc4ccccc43)c(=O)n2C1c1ccccc1` (centres undefined), for which the AC50 was 2 µM [rising, partial curve].

On to `COC(=O)C1=C(C)Nc2ncnn2C1c1ccccn1` (centres undefined), for which the AC50 is 5.01 µM [rising, single point].

With `CN(C)c1ccnc(-c2cccc(NS(C)(=O)=O)c2)n1`, the concentration at half-maximal activity (AC50) was 12.6 µM [rising, partial curve].

Take `O=C(Cc1cc(=O)[nH]c(=O)[nH]1)NCC1CCCO1` (centres undefined): the concentration at half-maximal activity (AC50) was 3.16 µM [falling, single point].

Turning to `CN(CCc1ccccn1)S(=O)(=O)c1ccc2c3c(cccc13)C(=O)N2`, the concentration at half-maximal activity (AC50) is 10 µM [rising, partial curve].

In the case of `CCc1ccccc1NC(=O)Cn1nnc(-c2cccs2)n1`, the half-maximal activity concentration (AC50) was 3.98 µM [falling, single point].

`CN(C)CCCn1c2c3ccccc3ccc2c2oc(=O)c3ccccc3c21`: the AC50 was 3.16 µM [rising, single point].

Regarding `O=c1c(-c2cc(F)cc(F)c2)nc2cnc(N3CCOCC3)nc2n1C[C@H]1CCCO1`, the AC50 is 15.8 µM [rising, partial curve].

Turning to `N#C/C(=C\c1ccc(O)c(O)c1)C(=O)NCc1ccccc1`, the AC50 was 31.6 µM [rising, single point].

As to `O=C(COc1ccccc1)n1nc(-c2ccc(Cl)cc2)nc1NCc1ccco1`, the concentration at half-maximal activity (AC50) was 20 µM [rising, single point].

For `CCN1C(=O)/C(=C2/C=CC=CN2C)OC1=S`, the AC50 is 0.251 µM [rising, full curve].

With `O=C(NCC(c1cccnc1)N1CCN(c2ccccc2F)CC1)c1ccccc1` (centres undefined), the AC50 was 12.6 µM [rising, single point].

For the compound `Cc1ccc(S(=O)(=O)N2CCCC2C(=O)NCc2ccco2)cc1` (centres undefined), the AC50 is 20 µM [rising, single point].

For `COCCn1c(=O)c(C)nc2cnc(Oc3ccccc3)nc21`, the concentration at half-maximal activity (AC50) is 10 µM [rising, partial curve].

As to `COc1ncc2nc(-c3ccc(Cl)cc3)c(=O)n(C[C@H]3CCCO3)c2n1`, the AC50 is 12.6 µM [rising, partial curve].

On to `COC(=O)c1ccccc1NS(=O)(=O)c1ccc2c3c(cccc13)C(=O)N2`, for which the concentration at half-maximal activity (AC50) was 10 µM [rising, partial curve].

`COc1cc2c(cc1OC)C(COc1ccc(F)cc1)N(C(=O)c1ccco1)CC2` (centres undefined): the AC50 was 10 µM [rising, partial curve].

As for `C=C(C)CSc1nnc(-c2cc(OC)c(OC)c(OC)c2)n1N`, the concentration at half-maximal activity (AC50) is 10 µM [rising, partial curve].

For the compound `O=C(CSc1n[nH]c(-c2ccco2)n1)Nc1sc2c(c1C(=O)Nc1ccccc1)CCCC2`, the AC50 was 2 µM [rising, full curve].

Consider `O=C(OCc1nnc(-c2ccccc2)o1)c1cc(S(=O)(=O)N2CCOCC2)c(Cl)cc1Cl`, for which the AC50 is 3.16 µM [falling, partial curve].

Turning to `COC(=O)c1c(C#N)c(N)nc2c1CCC2`, the AC50 is 2.51 µM [rising, full curve].

On to `CCOC(=O)c1oc2ccc(Br)cc2c1CSc1nnc(C)s1`, for which the AC50 is 15.8 µM [falling, single point].

Regarding `O=C(COc1ccccc1F)NC1CC1`, the concentration at half-maximal activity (AC50) was 0.00398 µM [falling, full curve].

For the compound `Cc1nc2c(C(=O)N3CCN(c4ccccn4)CC3)cnn2c(C)c1Cc1cccc(Cl)c1`, the AC50 is 7.94 µM [rising, partial curve].

Regarding `C=CCn1c(SCC(=O)Nc2cc(C)c(Cl)cc2OC)nnc1-c1ccco1`, the half-maximal activity concentration (AC50) was 10 µM [rising, partial curve].

As for `Cc1ccc(C)c(-n2c(SCC(=O)N3CCCC3)nnc2-c2ccccn2)c1`, the half-maximal activity concentration (AC50) was 12.6 µM [rising, single point].

With `Cc1ccccc1-c1nc(CN2CCC(C(=O)NCCCN3CCCC3)CC2)c(C)o1`, the AC50 was 0.2 µM [rising, full curve, poor fit].

Take `O=c1c(-c2ccc(Cl)cc2)nc2cnc(N3CCNCC3)nc2n1Cc1cccs1`: the half-maximal activity concentration (AC50) was 2 µM [rising, full curve].

`CC(C)c1ccc(OCC(O)CN2CCN(c3ccccc3)CC2)cc1` (centres undefined): the AC50 is 0.0794 µM [falling, full curve, poor fit].

With `O=C1CS/C(=N\C(=O)N2c3ccccc3Sc3ccccc32)N1`, the concentration at half-maximal activity (AC50) was 5.01 µM [falling, partial curve, poor fit].

Turning to `CCOC(=O)CC(=O)CSc1nc2sc(C)cc2c(=O)n1Cc1ccco1`, the AC50 is 7.94 µM [rising, partial curve].

Take `Cc1ccccc1Nc1nn2c(=O)c3ccccc3nc2s1`: the AC50 was 0.631 µM [rising, full curve].

As for `Cc1cc(C)c(S(=O)(=O)Nc2cccc(C(F)(F)F)c2)c(C)c1`, the concentration at half-maximal activity (AC50) was 15.8 µM [falling, partial curve].

`Cn1c(-c2ccc3c(c2)OCO3)cnc1NCc1cccc(Cl)c1`: the concentration at half-maximal activity (AC50) is 5.01 µM [falling, partial curve].

Take `Cc1cccc2cc(C#N)c(N3CCCC3)nc12`: the half-maximal activity concentration (AC50) is 12.6 µM [rising, partial curve].

With `CCc1nc2sc3c(c2c(=O)n1N)CCC3`, the AC50 was 10 µM [rising, single point].

Consider `CCOC(=O)c1c(NC(=O)c2ccoc2C)sc2c1CCC2`, for which the AC50 is 5.01 µM [rising, partial curve].

Take `CCOCCCNC(=O)C1CCN(c2cc(C)nc3c(-c4ccc(OC)c(OC)c4)c(C)nn23)CC1`: the AC50 is 5.01 µM [rising, partial curve].

As to `Cc1cc(NCCN2CCOCC2)n2nc(C)c(-c3ccc(Cl)cc3)c2n1`, the concentration at half-maximal activity (AC50) was 0.251 µM [rising, full curve].

In the case of `CCN1CCN(C(=O)c2cc3c(-c4ccc(Cl)cc4)nn(C)c3s2)CC1`, the concentration at half-maximal activity (AC50) is 10 µM [rising, partial curve].

Turning to `COCCCN1C(=O)C(O)=C(C(=O)c2ccco2)C1c1cccc(Br)c1` (centres undefined), the AC50 is 0.631 µM [falling, single point].

For the compound `COc1ccccc1N1CCN(CC(O)COc2ccc(S(=O)(=O)N3CCOCC3)cc2)CC1` (centres undefined), the concentration at half-maximal activity (AC50) was 5.01 µM [falling, partial curve].

Consider `Cn1c(=O)c2c(nc(CN3CCC(C(N)=O)CC3)n2CCCc2ccccc2)n(C)c1=O`, for which the AC50 was 25.1 µM [rising, single point].

As for `O=C1CC(C(=O)Nc2ccccc2)C2(CCCC2)O1` (centres undefined), the AC50 is 12.6 µM [falling, single point].

For the compound `CCOc1ccccc1NC=C1C(=O)OC(C)(C)OC1=O`, the half-maximal activity concentration (AC50) is 10 µM [rising, single point].

Regarding `CCCCOCCCNS(=O)(=O)Cc1ccccc1`, the AC50 was 0.00794 µM [falling, full curve].

For `CCc1nc(N)c(C#N)c(-c2ccccc2OC)c1C`, the half-maximal activity concentration (AC50) was 20 µM [rising, single point].

On to `Cc1cccc(N2C(N)=NC(N)=NC23CCCCC3)c1`, for which the half-maximal activity concentration (AC50) was 0.501 µM [falling, full curve].

With `O=C(CC1Sc2ccccc2NC1=O)OCC(=O)N1CCc2ccccc21` (centres undefined), the half-maximal activity concentration (AC50) is 3.16 µM [falling, partial curve].

For the compound `CNc1nc(C)nc(-n2nc(C)cc2C)n1`, the AC50 was 10 µM [rising, single point].

Consider `CCOc1cc(C2CC(=O)NC3=C2C(=O)C(C(=O)OC)C(C)C3)cc(Cl)c1O` (centres undefined), for which the concentration at half-maximal activity (AC50) was 12.6 µM [rising, single point].

For `C=CCn1c(N2CCCCCC2)nc2c1c(=O)n(C)c(=O)n2C`, the AC50 is 12.6 µM [rising, partial curve].

Take `Fc1ccc(Br)cc1C1C=C(c2cccnc2)Nc2ncnn21` (centres undefined): the AC50 was 12.6 µM [rising, single point].

As to `COC(=O)CCC(=O)Nc1ccc(OC)cc1`, the concentration at half-maximal activity (AC50) was 0.316 µM [rising, partial curve, poor fit].

Consider `NC(=O)c1oc2ccc(Cl)cc2c1N`, for which the AC50 is 0.02 µM [falling, full curve, poor fit].

With `COCCNC(=O)C(c1ccco1)N(Cc1ccc(OC)cc1)C(=O)Cn1nnc2ccccc21` (centres undefined), the AC50 was 0.1 µM [falling, full curve, poor fit].

Consider `COc1ccccc1NC(=O)CN1CCN(c2ccc(Cl)cc2)CC1`, for which the half-maximal activity concentration (AC50) is 0.316 µM [rising, full curve, poor fit].

In the case of `O=C(O)C(=Cc1ccc(-c2ccccc2)cc1)C(=O)O`, the AC50 was 3.98 µM [falling, partial curve, poor fit].

On to `CC(=O)Nc1cc2ccc(OC(C)=O)cc2oc1=O`, for which the AC50 is 3.16 µM [rising, full curve].

Take `C=C1C(=O)O[C@H]2C[C@@]3(C)CCCC(=C)[C@@H]3C[C@H]12`: the concentration at half-maximal activity (AC50) was 20 µM [falling, partial curve, poor fit].

In the case of `COc1ccc2[nH]cc(CCNc3nc(-c4cccnc4)nc4ccccc34)c2c1`, the AC50 is 6.31 µM [rising, partial curve].

In the case of `CC(C)n1cnc2cc(NCc3nc4ccccc4n3C)ccc21`, the AC50 is 25.1 µM [rising, single point].

Turning to `O=C(C1CCCN1S(=O)(=O)c1cccc2cccnc12)N1CCn2c1nc1ccccc12` (centres undefined), the concentration at half-maximal activity (AC50) is 25.1 µM [rising, single point].

Source of the values: PubChem BioAssay AID662 (National Center for Advancing Translational Sciences (NCATS), 2007).
